Results published in article PMC8615271.
No constants are given. Whether binding was seen depends on the method and setting.

Target: bovine milk lactoferrin (bovine)
Assay: far-Western, overlay or dot blot; reduced purified prey proteins (from 40 µM stocks, 3 µL) dotted on nitrocellulose; blocked with 5% skim milk in TBST; incubated with 0.2 µM reduced P5 in 20 mM Tris-HCl pH 7.6, 150 mM NaCl, 0.05% Tween 20 at 4 °C for 3 h; bound P5 detected with anti-P5 antiserum; both purified

binding: no binding (tested: 0.2 μM)
B1: P5 (reduced form) (enzyme, UniProt Q15084 20-440)
chain: LYSSSDDVIELTPSNFNREVIQSDSLWLVEFYAPWCGHCQRLTPEWKKAATALKDVVKVGAVDADKHHSLGGQYGVQGFPTIKIFGSNKNRPEDYQGGRTGEAIVDAALSALRQLVKDRLGGRSGGYSSGKQGRSDSSSKKDVIELTDDSFDKNVLDSEDVWMVEFYAPWCGHCKNLEPEWAAAASEVKEQTKGKVKLAAVDATVNQVLASRYGIRGFPTIKIFQKGESPVDYDGGRTRSDIVSRALDLFSDNAPPPELLEIINEDIAKRTCEEHQLCVVAVLPHILDTGAAGRNSYLEVLLKLADKYKKKMWGWLWTEAGAQSELETALGIGGFGYPAMAAINARKMKFALLKGSFSEQGINEFLRELSFGRGSTAPVGGGAFPTIVEREPWDGRDGELPVEDDIDLSDVELDDLGKDEL
